Data as given in patent US7427615B2, “3-substituted-4-pyrimidone derivatives” (Mitsubishi Pharma Corporation, priority 2001, dated 2008).
The match of structure and compound is tentative.

The chains behind the UniProt entries cited, without tags or fusion partners. Residues count along the entry.
UniProt A0A3Q1MT31, 1-419: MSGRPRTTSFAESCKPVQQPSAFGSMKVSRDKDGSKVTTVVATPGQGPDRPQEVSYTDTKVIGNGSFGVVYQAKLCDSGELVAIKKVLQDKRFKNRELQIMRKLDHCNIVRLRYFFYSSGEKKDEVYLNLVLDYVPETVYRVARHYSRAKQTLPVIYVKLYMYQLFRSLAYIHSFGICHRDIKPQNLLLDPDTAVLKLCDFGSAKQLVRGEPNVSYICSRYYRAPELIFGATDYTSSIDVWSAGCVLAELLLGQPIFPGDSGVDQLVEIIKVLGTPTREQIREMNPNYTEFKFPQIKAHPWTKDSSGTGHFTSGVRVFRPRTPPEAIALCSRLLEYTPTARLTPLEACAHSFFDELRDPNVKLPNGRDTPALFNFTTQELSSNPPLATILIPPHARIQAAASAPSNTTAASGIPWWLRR

Each molecule was assayed against bovine cerebral TPK1 (Bos taurus, UniProt A0A3Q1MT31) (assay: Inhibitory activity against P-GS1 phosphorylation by bovine cerebral TPK1). Conditions: 41.7 μM [γ-32P]ATP, 25° C., 2 hours, pH 6.5.
Description: Test Example: Inhibitory activity of the medicament of the present invention against P-GS1 phosphorylation by bovine cerebral TPK1
A mixture containing 100 mM MES-sodium hydroxide (pH 6.5), 1 mM magnesium acetate, 0.5 mM EGTA, 5 mM β-mercaptoethanol, 0.02% Tween 20, 10% glycerol, 12 μg/ml P-GS1, 41.7 μM [Υ-^32P] ATP (68 kBq/ml), bovine cerebral TPK1 and a compound shown in Table (a final mixture contained 1.7% DMSO deriving from a solution of a test compound prepared in the presence of 10% DMSO) was used as a reaction system. The phosphorylation was started by adding ATP, and the reaction was conducted at 25° C. for 2 hours, and then stopped by adding 21% perchloric acid on ice cooling. The reaction mixture was centrifuged at 12,000 rpm for 5 minutes and adsorbed on P81 paper (Whatmann), and then the paper was washed four times with 75 mM phosphoric acid, three times with water and once with acetone. The paper was dried, and the residual radioactivity was measured using a liquid scintillation counter.

Structure (SMILES)	IC50 [nM]
COc1ccc([C@H]2CN(c3nc(-c4ccncc4)cc(=O)n3C)CCO2)c(OC)c1	0.3
Cn1c(N2CCOC(c3ccc(CN4CCCC4)cc3)C2)nc(-c2ccncc2)cc1=O (racemic)	4.7
COc1ccc(OC)c(C2CN(c3nc(-c4ccncc4)cc(=O)n3C)CCO2)c1 (racemic)	0.28
COc1ccc(C2CN(c3nc(-c4ccncc4)cc(=O)n3C)CCO2)c(OC)c1 (stereo not shown)	0.9
COc1ccccc1C(=O)C1CCCN(c2nc(-c3ccncc3)cc(=O)n2C)C1 (stereo not shown)	9

Now from value to molecule:

IC50 [nM]	Structure (SMILES)
1.2	Cn1c(N2CCOC(c3cccc4c3OCC4)C2)nc(-c2ccncc2)cc1=O (stereo not shown)
10	Cn1c(N2CCCC(C(=O)c3ccc(Cl)s3)C2)nc(-c2ccncc2)cc1=O (stereo not shown)
